Out of some 320,000 compounds screened, about 620 (0.19%) were called active. Inconclusive results, whose numbers are uncertain, are shown with a selection of clear calls. Cut-off read from the data, not from the text of the source: active = activation above about 80%; inconclusive = between about 30% and that limit; inactive = weaker than that.
biological target: Transient receptor potential cation channel subfamily V member 1 (Homo sapiens) (UniProt Q8NER1); experiment: HTS Assay for Compounds that Act as Agonists of the Vanilloid Receptor 1; settings: TRPV1-expressing cells, Fluo-8 calcium influx, agonist mode; at 8.33 µM, hits give high values; note: 0% is about no effect
Outline: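 Fluo-8 calcium influx in TRPV1-expressing cells, kinetic read (ex 480/em 520 nm). Compound added and read 3 min for agonist activity, followed by capsaicin at EC20 final and 2 min further read for enhancement.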

Sequences of proteins named here, by UniProt entry; tags and fusion partners are left off.
UniProt Q8NER1, whole entry, looked up: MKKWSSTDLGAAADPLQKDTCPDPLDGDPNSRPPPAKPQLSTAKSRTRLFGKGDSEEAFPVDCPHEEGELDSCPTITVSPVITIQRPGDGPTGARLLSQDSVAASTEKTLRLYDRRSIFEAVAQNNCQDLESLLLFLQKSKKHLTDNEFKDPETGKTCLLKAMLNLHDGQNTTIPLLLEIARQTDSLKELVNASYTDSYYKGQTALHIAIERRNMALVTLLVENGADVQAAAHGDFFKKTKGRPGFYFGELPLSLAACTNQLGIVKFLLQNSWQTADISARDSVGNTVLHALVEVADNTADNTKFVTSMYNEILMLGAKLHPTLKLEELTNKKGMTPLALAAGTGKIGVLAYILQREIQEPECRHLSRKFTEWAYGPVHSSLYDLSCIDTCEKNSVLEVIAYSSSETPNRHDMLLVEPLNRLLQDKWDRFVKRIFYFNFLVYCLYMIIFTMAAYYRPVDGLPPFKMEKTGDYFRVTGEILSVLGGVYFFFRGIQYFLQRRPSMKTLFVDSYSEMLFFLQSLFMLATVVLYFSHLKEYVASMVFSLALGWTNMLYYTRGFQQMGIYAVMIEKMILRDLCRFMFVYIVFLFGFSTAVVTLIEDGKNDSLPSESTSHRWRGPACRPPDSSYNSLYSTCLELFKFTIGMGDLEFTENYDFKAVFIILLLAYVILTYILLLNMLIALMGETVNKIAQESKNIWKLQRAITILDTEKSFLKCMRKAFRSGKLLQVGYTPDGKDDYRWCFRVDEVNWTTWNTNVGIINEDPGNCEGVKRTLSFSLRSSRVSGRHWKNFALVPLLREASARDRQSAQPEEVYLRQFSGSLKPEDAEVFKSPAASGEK

Row | Compound | activation
1 | COc1ccc(Oc2ccc(N/C=C3\CCCC3=O)cc2)cc1 | inconclusive: 39.3%
2 | CCOC(=O)c1cc(C(O)(C(F)(F)F)C(F)(F)F)c(/N=C/N(C)C)o1 | inconclusive: 68.3%
3 | COC(=O)c1cc(C(=O)OCC(=O)c2ccc3c(c2)NC(=O)CO3)cc([N+](=O)[O-])c1 | inactive: -1.22%
4 | CC1(C)Cc2c(C#N)c(NCCc3ccccc3)nc(-c3ccco3)c2CO1 | inactive: -0.679%
5 | O=c1c(Cc2ccc(Cl)cc2)c(O)ccn1Cc1cccs1 | inactive: 1.14%
6 | Clc1ccc(-c2ccc(CNCc3ccccn3)o2)cc1 | inconclusive: 39.6%
7 | Cc1cccc(OC(C)C(=O)Nc2cc(Cl)ccc2-n2cncn2)c1 (stereo not given) | inconclusive: 56.6%
8 | CCOc1ccc(CNC(=O)C2CCCN(S(=O)(=O)N3CC(C)CC(C)C3)C2)cc1OC (stereo not given) | inconclusive: 64%
9 | NNC(=O)c1ccc(COCC(F)(F)C(F)F)cc1 | inconclusive: 30.8%
10 | CCCN(CCC)CCCNC(=S)Nc1ccc2nc(N3CCN(CC)CC3)cc(C)c2c1 | inactive: -3.52%
11 | COc1ccc(NC(=O)c2cc(-c3ccccc3)nc3c2cnn3C(C)C)cc1 | inconclusive: 57.8%
12 | CC(C)Oc1cccc(C(=O)C2CCCN(C(=O)CCc3cnn(C)c3)C2)c1 (stereo not given) | inconclusive: 42.5%
13 | CCCCn1ccnc1C(=O)c1cccc(S(=O)(=O)N2CC(C)CC(C)C2)c1 (stereo not given) | inconclusive: 30.4%
14 | COc1cc2c(cc1OC)CN(C(=S)Nc1ccc(C)cc1C)CC2 | inconclusive: 36.7%
15 | Clc1ccccc1/C=C/c1ccnc2ccccc12 | inconclusive: 45.4%
16 | Cc1ccc2c(C)c(C(=O)Nc3ccc(S(N)(=O)=O)cc3)oc2c1C | inconclusive: 63.5%
17 | CC(=O)Nc1ccc(S(=O)(=O)N2CCCC(C(=O)O)C2)cc1 (stereo not given) | inactive: 4.31%
18 | COc1ccc(C(=O)N/N=C/c2ccc(OC)c(COc3ccc(F)cc3F)c2)cc1 | inactive: -1.29%
19 | CC(=O)c1cc(-c2ccccc2)n(CCC(=O)NC(C)(C)C)c1C | inconclusive: 40.8%
20 | CC(=O)c1ccc(Nc2nc(C)nc3c2oc2ccccc23)cc1 | inconclusive: 62.8%
21 | O=C(C1=NN(c2ccccc2)C2C(=O)N(c3cccc(Cl)c3)C(=O)C12)c1ccccc1 (stereo not given) | inconclusive: 32.3%
22 | O=C(NC(=S)NCc1ccccc1)c1cccc(Cl)c1 | inactive: 22.7%
23 | COc1cc(/C=C(\C#N)C(=O)NCC2CCCO2)ccc1OCCC(C)C (stereo not given) | inactive: 28.9%

Row | Compound | activation
24 | O=C(Nc1ccc(OCc2ccccc2)cc1)Nc1cccnc1 | inconclusive: 59.7%
25 | Cc1c(C(=O)Nc2ccc(F)c(F)c2)oc2ccc(S(=O)(=O)N3CCCCC3)cc12 | inconclusive: 40.8%
26 | CSCCCNC(=S)N1CCc2ccccc2C1 | inconclusive: 61.9%
27 | N/C(=N\OC(=O)CC(c1ccccc1)c1ccccc1)c1cccnc1 | inconclusive: 66.6%
28 | NC(=O)c1ccsc1NC(=O)COC(=O)c1ccc(Cl)c(N)c1 | inactive: 0.133%
29 | Nc1cc(S(=O)(=O)Nc2ccc(Cl)cc2)ccc1N1CCOCC1 | inactive: 5.81%
30 | Cc1cc(N2CC(C(=O)NCc3cccnc3)CC2=O)ccc1C(C)C (stereo not given) | inconclusive: 38.5%
31 | CCOC(=O)[C@H]1[C@H]2COc3cc(OC)ccc3[C@@H]2N2C(=O)c3cc(F)c(F)cc3NC(=O)[C@@]12C | inconclusive: 54.2%
32 | O=C(NCCc1ccc(F)cc1)Nc1ccccc1 | inconclusive: 39.2%
33 | CCOc1nc(NCc2ccco2)nc(Nc2ccccc2F)n1 | inconclusive: 32%
34 | CCCOc1cccc(C(=O)Nc2cccnc2)c1 | inconclusive: 42%
35 | COc1cc2c(cc1OC)CN(S(=O)(=O)c1ccc(Cl)nc1)CC2 | inconclusive: 30.9%
36 | CC(=O)C(=Nc1ccc(Cl)cc1Cl)NNc1cccc(Cl)c1 | inconclusive: 34.4%
37 | O=C(N/N=C/c1ccc2c(c1)OCO2)c1ccc2c(c1)OCCO2 | inconclusive: 68.6%
38 | O=C(c1cn(CC(=O)N2CCCCC2)c2ccccc12)C1CC1 | inactive: 2.64%
39 | Cc1cccc(Nc2ncnc3ccc(Br)cc23)c1 | inconclusive: 49.8%
40 | COC(=O)c1ccsc1NC(=O)CN1CCN(Cc2ccc3c(c2)OCO3)CC1 | inactive: -1.61%
41 | COc1ccccc1Cc1nnnn1CC(=O)O | inactive: 5.78%
42 | O=C(Nc1ccccc1N1CCCC1)c1ccc([N+](=O)[O-])o1 | inactive: -4.64%
43 | O=C(/C(C=Nc1ccc(Br)cc1)=C(/O)c1ccco1)C(F)(F)F | inconclusive: 36.4%
44 | C=CCN=C1S/C(=C\c2ccc(Cl)cc2)C(=O)N1CC=C | inactive: 1.28%
45 | O=C1c2cccc3c(N4CCCCC4)ccc(c23)C(=O)N1c1cccc(O)c1 | inconclusive: 36.2%
46 | NNC(=S)NC1CCS(=O)(=O)C1 (stereo not given) | inactive: -3.63%

Row | Compound | activation
47 | COc1ccc(C(=O)Nc2ccccc2C(N)=O)cc1 | inconclusive: 34.5%
48 | CCOc1ccc(CCNC(=O)COC(=O)c2ccc(OC(C)C)cc2)cc1OCC | inconclusive: 47.9%
49 | Cc1c(-n2c(-c3ccccc3)nc3ccccc3c2=O)c(=O)n(-c2ccccc2)n1C | inconclusive: 61.9%
50 | O=C(Nc1ccccc1N1CCN(C(=O)c2ccccc2)CC1)c1ccc2c(c1)OCO2 | inconclusive: 35.7%
51 | O=C(NC(=S)Nc1cc(C(F)(F)F)ccc1N1CCOCC1)c1ccco1 | inconclusive: 44.2%
52 | COc1ccccc1-c1c(C)nn2c(-c3ccccc3)cc(C)nc12 | inconclusive: 30.3%
53 | O=C(NC(=O)N1CCN(c2cccc(Cl)c2)CC1)c1ccc(Cl)cc1 | inconclusive: 40.2%
54 | CN(C)c1ccc(/C=C(\NC(=O)c2ccccc2)C(=O)NCCCn2ccnc2)cc1 | inactive: -0.393%
55 | O=c1c2ccccc2[nH]c(=S)n1Cc1ccccc1 | inconclusive: 32.8%
56 | CCC(C)NC(=O)Cc1c(C)c2cc3c(cc2oc1=O)OC(C)(C)CC3 (stereo not given) | inconclusive: 54.3%
57 | Cc1cccc2cc(/C=N/NC(=O)CN3CCCCC3)c(Cl)nc12 | inconclusive: 33.6%
58 | Cc1ccc(-n2nc(C)c3c(C)c(CCC(=O)Nc4ccc(CN5CCCC5)cc4)c(C)nc32)cc1 | inconclusive: 46.7%
59 | Cc1ccc2nc(SCC(=O)c3ccc4c(c3)NC(=O)CO4)[nH]c2c1 | inconclusive: 37.7%
60 | O=C(NCc1cccs1)C1CCN(c2ccc(S(=O)(=O)N3CCOCC3)cc2Cl)CC1 | inactive: -5.35%
61 | CC(C)CC(COCc1ccc(Cl)cc1)N1CCN(C(=O)c2cccc(C(F)(F)F)c2)CCC1=O (stereo not given) | inconclusive: 55%
62 | COCc1nc2ccccc2n1Cc1cccc(C)c1 | inconclusive: 34.6%
63 | CN(C)c1ccc(/C=C(\C#N)C(=O)c2ccccc2)cc1 | active: 83.7%
64 | CCc1ccc(NC(=O)NCC2CCN(c3ccc(OC)cc3)C2)cc1 (stereo not given) | inconclusive: 49%
65 | Cc1ccc2c(c1)C(=O)CC(O)(C(F)(F)F)O2 (stereo not given) | inactive: -1.07%
66 | CC(C)(C)c1ccc(C(=O)NCCC(=O)NCc2cccs2)cc1 | inconclusive: 42.9%
67 | Cc1c(N=c2scc(-c3ccccc3)n2CCO)c(=O)n(-c2ccccc2)n1C | inactive: 1.5%
68 | CC(C)C[C@H](NC(=O)N1CC(=O)Nc2ccccc21)C(=O)N[C@H](C(=O)O)c1ccccc1 | inactive: -1.24%
69 | Cn1c2ccccc2c2c(C(=O)NCc3ccco3)cn(C3CCCCC3)c(=O)c21 | inconclusive: 32.4%

Ordered by SMILES length (smallest number first): part of the list above.
Row | Compound | activation
47 | COc1ccc(C(=O)Nc2ccccc2C(N)=O)cc1 | inconclusive: 34.5%
63 | CN(C)c1ccc(/C=C(\C#N)C(=O)c2ccccc2)cc1 | active: 83.7%
53 | O=C(NC(=O)N1CCN(c2cccc(Cl)c2)CC1)c1ccc(Cl)cc1 | inconclusive: 40.2%
54 | CN(C)c1ccc(/C=C(\NC(=O)c2ccccc2)C(=O)NCCCn2ccnc2)cc1 | inactive: -0.393%

The list goes on:

Row | Compound | activation
70 | O=C(c1cccs1)N1CCC(c2ccccc2)C1 (stereo not given) | inactive: -17.9%
71 | FC(F)(F)c1nc2ccccc2nc1N/N=C\c1ccccc1 | inconclusive: 40.7%
72 | COc1cccc(-c2cc(-c3cccnc3)nc(N)c2C#N)c1 | inconclusive: 56.3%
73 | CC(C)(C)NC(=O)c1cccc2c1C(=O)c1ccccc1-2 | inconclusive: 30.2%
74 | Cc1cc(C)cc(NC(=O)N2CCC(c3nc4ccccc4o3)CC2)c1 | inconclusive: 73.2%
75 | Cc1sc2nc(CN3CCOCC3)nc(NCCc3ccccc3)c2c1C | inconclusive: 65.9%
76 | O=C(OCCCN=C1NS(=O)(=O)c2ccccc21)c1ccc(F)cc1 | inconclusive: 36%
77 | CSc1nnc([C@H](Cc2c[nH]c3ccccc23)NC(=O)OC(C)(C)C)o1 | inconclusive: 49.2%
78 | Cc1ccc(Cl)c2c1=NC(=O)C=2c1[nH]c(=S)[nH]c1O | inactive: 0.642%
79 | Cc1c(C(=O)NN)sc(-c2ccccc2)c1C#N | inactive: 2.34%
80 | CN1CCN(c2ccc([N+](=O)[O-])cc2NC(=O)c2ccccc2Cl)CC1 | inactive: 20.5%
81 | CCCCC(C(=O)NC1CCCC1)N(C(=O)c1snc(C(N)=O)c1N)c1ccc(C)cc1 (stereo not given) | inconclusive: 31.5%
82 | Cc1nn(C)cc1NC(=O)CCSc1nc(-c2ccco2)cc(C(F)(F)F)n1 | inconclusive: 36.3%
83 | CC(=O)N1c2ccccc2N(Cc2ccc(C)cc2C)C(=O)C1(C)C | inactive: 18.9%
84 | CCCCCCn1c(SCC(=O)Nc2cc(C)on2)nc2ccccc2c1=O | inactive: 0.725%
85 | COc1ccc(-c2cc(C(F)(F)F)nc(SCC(=O)NCc3cccs3)n2)cc1OC | inconclusive: 31.4%
86 | C=CCSC1=NNC(c2ccc(C(C)(C)C)cc2)=NN1 | inconclusive: 35.5%
87 | COc1ccc(C(C)=O)cc1CSc1nnc(Nc2ccccc2C)s1 | inactive: 2.04%
88 | CCc1nc(N2CCC(C)CC2)c2oc3ccccc3c2n1 | inconclusive: 31.3%
89 | Cc1ccc2oc(=O)n(CC(=O)OCCC(C)C)c2c1 | inactive: 22.3%
90 | O=C(CCCn1c(=S)[nH]c2cc3c(cc2c1=O)OCO3)N1CCN(c2ccccn2)CC1 | inactive: -1.4%

Three entries from above, set out differently:
Row,Compound,activation
74,Cc1cc(C)cc(NC(=O)N2CCC(c3nc4ccccc4o3)CC2)c1,inconclusive: 73.2%
75,Cc1sc2nc(CN3CCOCC3)nc(NCCc3ccccc3)c2c1C,inconclusive: 65.9%
76,O=C(OCCCN=C1NS(=O)(=O)c2ccccc21)c1ccc(F)cc1,inconclusive: 36%

From PubChem BioAssay AID540275 (National Center for Advancing Translational Sciences (NCATS), 2011)
